Reference: PubChem BioAssay AID686937 (Drosophila RNAi Screening Center, 2013)
In all, the deposit lists about 23,000 reagents; below is an unselected part of those that have a named target and a result. 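Reduced-secretion tags in replicate 1 do not always agree with the z-scores; no criterion for assigning the tags was given.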 Names joined by + are all predicted targets of the reagent. Further read-outs or replicates are left out here. The record does not give: the amount of reagent.

Purpose: 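Knock-downs that reduce output of a secreted reporter enzyme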 (primary screen)
System: Drosophila S2 cells expressing secreted horseradish peroxidase
Reagents: long dsRNA against Drosophila genes
Timing: about 5.5 days (5 days dsRNA, then 12 h reporter induction)
Challenge: reporter expression induced after 5 days of dsRNA, read 12 h later; inducer not stated
Measurement: 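Chemiluminescent measurement of peroxidase in the medium 12 h after reporter induction, following 5 days of dsRNA, given as a z-score per plate; higher means more secretion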
Reading the numbers: z-score: higher = more reporter secreted into medium

CG6661 + asRNA:CR42871 [DRSC10687] showed z-score, replicate 1 = 0.4.
Against CG13297 [DRSC09971], the values are z-score, replicate 1 = 0.11.
With knock-down of Scr [DRSC12604] the results were z-score, replicate 1 = -1.47.
Against CG7378 [DRSC20041] the deposit lists z-score, replicate 1 = -0.26.
CG10486 [DRSC09735] gave z-score, replicate 1 = 0.58.
Silencing of CG30344 [DRSC22510] resulted in: z-score, replicate 1 = 0.09.
After knock-down of Doc2 [DRSC22716] the results were z-score, replicate 1 = -0.03.
With knock-down of CG11110 [DRSC06037] the results were z-score, replicate 1 = 0.38.
For Smyd4-4 [DRSC05956], the values are z-score, replicate 1 = 0.25.
After knock-down of mspo [DRSC07652], the screen gave z-score, replicate 1 = -0.15.
CG13003 [DRSC19522] scored z-score, replicate 1 = 0.38.
Against esn [DRSC05039], the entry reads z-score, replicate 1 = -1.76.
After knock-down of esn [DRSC06181], the screen gave z-score, replicate 1 = 0.63.
esn [DRSC07612] scored z-score, replicate 1 = 0.42.
With knock-down of Mettl3 [DRSC15921], the record shows z-score, replicate 1 = 0.26.
Knock-down of CG32432 [DRSC11703] gave: z-score, replicate 1 = -4.08.
After knock-down of CG32432 [DRSC11704] the results were z-score, replicate 1 = -2.22.
Depletion of CG32432 [DRSC11744] gave: z-score, replicate 1 = 0.23.
Against CG2082 [DRSC12125], the values are z-score, replicate 1 = 0.11.
para [DRSC19141] gave z-score, replicate 1 = 0.47.
After knock-down of para [DRSC20360], the screen gave z-score, replicate 1 = 0.4.
Spt-I [DRSC06860] gave z-score, replicate 1 = 0.11.
Ekar [DRSC17161] showed z-score, replicate 1 = 0.24.
Against AIMP3 [DRSC04500] the deposit lists z-score, replicate 1 = 0.42.
Silencing of nito [DRSC05943] resulted in: z-score, replicate 1 = 0.56.
Grp170 [DRSC18524] showed z-score, replicate 1 = -0.54.
ppk13 [DRSC02382] showed z-score, replicate 1 = 0.36.
Against Khc-73 [DRSC07449] the deposit lists z-score, replicate 1 = 0.49.
Against CG3306 [DRSC10357], the entry reads z-score, replicate 1 = 0.27.
Ir76b [DRSC10831] gave z-score, replicate 1 = 0.08.
After knock-down of a5 [DRSC00798], the screen gave z-score, replicate 1 = 0.21.
Knock-down of Dh31 [DRSC02196] resulted in: z-score, replicate 1 = 0.36.
After knock-down of ReepB [DRSC07150] the results were z-score, replicate 1 = 0.52.
After knock-down of CG6610 [DRSC10674], the record shows z-score, replicate 1 = 0.11.
Silencing of 14-3-3zeta [DRSC05028] gave: z-score, replicate 1 = 0.4.
CG42380 + CG42379 + PIG-M + 1 more [DRSC03884] scored z-score, replicate 1 = -0.6.
Against CG42380 + CG42379 + PIG-M + 1 more [DRSC04580], the values are z-score, replicate 1 = 0.25.
Silencing of CG31792 [DRSC02604] resulted in: z-score, replicate 1 = 0.1.
Depletion of CG4650 [DRSC02767] gave: z-score, replicate 1 = 0.34.
Against chico [DRSC03531], the entry reads z-score, replicate 1 = 0.23.
After knock-down of Prp6 [DRSC10724], the screen gave z-score, replicate 1 = 0.25.
Against Prp6 [DRSC21773], the values are z-score, replicate 1 = -0.88.
Knock-down of CG8192 [DRSC07101] resulted in: z-score, replicate 1 = 0.76.
CG6277 [DRSC16008] scored z-score, replicate 1 = 0.2.
Against CG8630 [DRSC16441], the values are z-score, replicate 1 = -0.31.
For CG15539 [DRSC15075], the values are z-score, replicate 1 = 0.38.
After knock-down of CG16736 [DRSC15145], the record shows z-score, replicate 1 = -0.1.
Against brm [DRSC11330], the entry reads z-score, replicate 1 = -1.33.
With knock-down of Or59b [DRSC04632], the screen gave z-score, replicate 1 = 0.43.
For CG8389 [DRSC07158], the entry reads z-score, replicate 1 = 0.32.
CG8389 [DRSC22855] showed z-score, replicate 1 = 0.2.
